PubChem BioAssay AID1224830 | NIAID, 2016
Here is an unselected part of about 18,000 reagents tested. In the full data, about 2,900 (16%) got an active call. 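Calls are made per well; low scores hint the gene aids the LPS response, high scores that it dampens it.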 Repeated entries: four replicate wells of each siRNA pool. No sequences are given here.

Screen: 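Regulators of TLR4 signalling towards TNF-alpha in macrophage-like cells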 (primary screen)
Cells: human THP-1 monocytic leukaemia cells, TNF dual-luciferase reporter clone, PMA-differentiated to macrophage-like cells
Knock-down reagent: siRNA pool against human genes, 50 nM
Duration: LPS for 4 h, given about 3 days after siRNA transfection
Treatment: bacterial LPS (TLR4 ligand), 10 ng/ml
Measurement: 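TNF firefly reporter luminescence divided by renilla, normalised to the plate median, then turned into a robust z-score for each replicate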
Direction: TNF reporter robust z-score: higher = stronger TNF reporter response to LPS
Hit rule: 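Each well counts as active if its z-score is over 2.8 or under -1.5; controls are left without a call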

The opening 3 entries, to show the layout:
| gene knocked down | PubChem SID | TNF reporter robust z-score | activity call |
| --- | --- | --- | --- |
| TEX261 | SID315461189 | -0.23 | inactive |
| TEX261 | SID315461189 | 0.57 | inactive |
| TEX261 | SID315461189 | 1.61 | inactive |

Main list, repeating the preview:
| gene knocked down | PubChem SID | TNF reporter robust z-score | activity call |
| --- | --- | --- | --- |
| TEX261 | SID315461189 | -0.23 | inactive |
| TEX261 | SID315461189 | 0.57 | inactive |
| TEX261 | SID315461189 | 1.61 | inactive |
| TEX261 | SID315461189 | -0.45 | inactive |
| KRT27 | SID315464136 | 1.04 | inactive |
| KRT27 | SID315464136 | 1.56 | inactive |
| KRT27 | SID315464136 | 2.59 | inactive |
| KRT27 | SID315464136 | 2.22 | inactive |
| KDM5C | SID315452444 | 1.49 | inactive |
| KDM5C | SID315452444 | -0.48 | inactive |
| KDM5C | SID315452444 | 0.86 | inactive |
| KDM5C | SID315452444 | -0.75 | inactive |
| CIAO2B | SID315456825 | 0.31 | inactive |
| CIAO2B | SID315456825 | -0.08 | inactive |
| CIAO2B | SID315456825 | 0.06 | inactive |
| CIAO2B | SID315456825 | 0.66 | inactive |
| MGRN1 | SID315455140 | -0.77 | inactive |
| MGRN1 | SID315455140 | 0.04 | inactive |
| MGRN1 | SID315455140 | -0.46 | inactive |
| MGRN1 | SID315455140 | -0.38 | inactive |
| LRRC8E | SID315459659 | 1.09 | inactive |
| LRRC8E | SID315459659 | 1.29 | inactive |
| LRRC8E | SID315459659 | 0.31 | inactive |
| LRRC8E | SID315459659 | 0.46 | inactive |
| WDR53 | SID315464250 | 3.12 | active |
| WDR53 | SID315464250 | 2.82 | active |
| WDR53 | SID315464250 | 2.41 | inactive |
| WDR53 | SID315464250 | 1.69 | inactive |
| MRPL33 | SID315453378 | 0.02 | inactive |
| MRPL33 | SID315453378 | 1.6 | inactive |
| MRPL33 | SID315453378 | 0.61 | inactive |
| MRPL33 | SID315453378 | 0.98 | inactive |
| HOXD1 | SID315449294 | 0.73 | inactive |
| HOXD1 | SID315449294 | 0.72 | inactive |
| HOXD1 | SID315449294 | 0.35 | inactive |
| HOXD1 | SID315449294 | 0.71 | inactive |
| PDZD2 | SID315454945 | 0.86 | inactive |
| PDZD2 | SID315454945 | -0.06 | inactive |
| PDZD2 | SID315454945 | 0.41 | inactive |
| PDZD2 | SID315454945 | 0.09 | inactive |
| TMEM267 | SID315458920 | 1.58 | inactive |
| TMEM267 | SID315458920 | 1.46 | inactive |
| TMEM267 | SID315458920 | 2.37 | inactive |
| TMEM267 | SID315458920 | 0.73 | inactive |
| CPN1 | SID315448070 | -1.19 | inactive |
| CPN1 | SID315448070 | -0.08 | inactive |
| CPN1 | SID315448070 | -0.69 | inactive |
| CPN1 | SID315448070 | -0.62 | inactive |
| SLTM | SID315459477 | 0.41 | inactive |
| SLTM | SID315459477 | 0.36 | inactive |
| SLTM | SID315459477 | 0.14 | inactive |
| SLTM | SID315459477 | 0.27 | inactive |
| FOXD3 | SID315455882 | -0.06 | inactive |
| FOXD3 | SID315455882 | 0.08 | inactive |
| FOXD3 | SID315455882 | 0.22 | inactive |
| FOXD3 | SID315455882 | 0.55 | inactive |
| INTS8 | SID315457748 | 2.33 | inactive |
| INTS8 | SID315457748 | 0.83 | inactive |
| INTS8 | SID315457748 | 1.36 | inactive |
| INTS8 | SID315457748 | 3.54 | active |
| APBB1IP | SID315457054 | 2.5 | inactive |
| APBB1IP | SID315457054 | 3.49 | active |
| APBB1IP | SID315457054 | 2.76 | inactive |
| APBB1IP | SID315457054 | 3.36 | active |
| BBS5 | SID315461846 | -0.42 | inactive |
| BBS5 | SID315461846 | -0.79 | inactive |
| BBS5 | SID315461846 | 0.18 | inactive |
| BBS5 | SID315461846 | -0.35 | inactive |
| LRRC56 | SID315461308 | 0.64 | inactive |
| LRRC56 | SID315461308 | 1.97 | inactive |
| LRRC56 | SID315461308 | 1.12 | inactive |
| LRRC56 | SID315461308 | 3.75 | active |
| CSNK1G3 | SID315448136 | 1.63 | inactive |
| CSNK1G3 | SID315448136 | 0.77 | inactive |
| CSNK1G3 | SID315448136 | 1.95 | inactive |
| CSNK1G3 | SID315448136 | 1.37 | inactive |
| FOXA3 | SID315449244 | -0.06 | inactive |
| FOXA3 | SID315449244 | 0.11 | inactive |
| FOXA3 | SID315449244 | 0.44 | inactive |
| FOXA3 | SID315449244 | 0.98 | inactive |
| TCF19 | SID315451794 | 5.08 | active |
| TCF19 | SID315451794 | 5.01 | active |
| TCF19 | SID315451794 | 2.29 | inactive |
| TCF19 | SID315451794 | 2.44 | inactive |
| LRRC15 | SID315461899 | -0.01 | inactive |
| LRRC15 | SID315461899 | 1.27 | inactive |
| LRRC15 | SID315461899 | 1.2 | inactive |
| LRRC15 | SID315461899 | 0.86 | inactive |
| AMY2B | SID315447310 | -0.37 | inactive |
| AMY2B | SID315447310 | -0.14 | inactive |
| AMY2B | SID315447310 | -0.09 | inactive |
| AMY2B | SID315447310 | 0.14 | inactive |
| RPL4 | SID315451171 | -0.93 | inactive |
| RPL4 | SID315451171 | -1.28 | inactive |
| RPL4 | SID315451171 | -0.99 | inactive |
| RPL4 | SID315451171 | -1.52 | active |
| GPATCH8 | SID315455012 | -0.28 | inactive |
| GPATCH8 | SID315455012 | -0.47 | inactive |
| GPATCH8 | SID315455012 | -0.77 | inactive |
| GPATCH8 | SID315455012 | 1.53 | inactive |
| SLC35B4 | SID315460568 | -1.12 | inactive |
| SLC35B4 | SID315460568 | -0.6 | inactive |
| SLC35B4 | SID315460568 | -1.07 | inactive |
| SLC35B4 | SID315460568 | -1.04 | inactive |
| OR2T1 | SID315455842 | -0.59 | inactive |
| OR2T1 | SID315455842 | 0.01 | inactive |
| OR2T1 | SID315455842 | -1.43 | inactive |
| OR2T1 | SID315455842 | -0.31 | inactive |
| HLA-DRB5 | SID315449217 | 0 | inactive |
| HLA-DRB5 | SID315449217 | -0.27 | inactive |
| HLA-DRB5 | SID315449217 | -0.39 | inactive |
| HLA-DRB5 | SID315449217 | -0.04 | inactive |
